Patent US11196057B2, “Metal-air cell with performance enhancing additive” (ARIZONA BOARD OF REGENTS ACTING FOR AND ON BEHALF OF …, priority 2010, dated 2021)
At least one compound was matched to its structure with a doubt left.

Experiment: Properties of host ionic liquid BDMeIm Tf (gravimetric, Cottrell)
Format: physicochemical
Details: dry ORR on glassy carbon and with Cottrell
Method: A series of protic additives were added into an ionically conductive medium in order to examine the effects of such additives upon oxygen reduction reaction (“ORR”). An aprotic ionic liquid BdMelm:Tf was used as the host for the additive. A photograph of an experimental setup is provided in FIG. 5A, with FIG. 5B showing a cartoon of a close-up of the measurement tube/chamber. […] See e.g., FIG. 5F. Also, the IL had the benefit of the superacidity of Tf, which minimizes solvent leveling effects. Additional benefits of this dry aprotic IL system include also invariant electrode, high reversibility, and high reactivity, as shown in cyclic voltammagrams (CV) in FIG. 5C and the result of the Kouteeky-Levich ([…]) analysis with respect to the number of electrons per O2 vs. potential in FIG. 5D.

**Q.** With `CCCCn1cc[n+](C)c1C.O=S(=O)([O-])C(F)(F)F` [BDMelm Tf] as the compound, how does the diffusivity read?
**A.** about 7.5×10−6 cm2/s
